For at least one entry, the source does not settle the construct or the ends of the probe. The comparison behind a weaker result is the experiment's own reference, which may not be listed here. At least one verdict was read from the data and is not stated in words by the source.

For the series, the target named is PU.1 (MST prep) (Homo sapiens) (UniProt P17947). In words: MST. The note with it: MST: 50 nM DNA, PU.1 dilution series, buffer not given, recombinant protein, label: Cy3 on one strand.
[1] abbreviates: unmodified, protein details: N-terminal His.

Turning to “ACGTGAAGCGGAAGTGACGT (double strand) [5hmC_proximal_sense]”, the binding result (5hmC on sense strand, 5hmC at position 9 of strand 1, protein details: N-terminal His) is “binds more weakly”. In the case of “ACGTGAAGCGGAAGTGACGT (double strand) [5mC_proximal_sense]”, the binding result (5mC on sense strand, 5mC at position 9 of strand 1, protein details: N-terminal …) is “binds more weakly”. With “ACGTAAAGAGGAAGCGACGT (double strand) [5C_distal]”, the binding result under setting [1] is reported as “binds”.

Turning to “ACGTGAAGCGGAAGTGACGT (double strand) [5C_proximal]”, the binding result under setting [1] is listed as “binds”. Turning to “ACGTGAAGCGGAAGTGACGT (double strand) [5mC_proximal antisense-methylated]”, for the setting “5mC on antisense strand only, 5mC on strand 2 at the CpG (opposite position 10 of strand 1), protein details: N-terminal His, letters put together from the description”, the binding result is recorded as “binds”. On to “ACGTGAAGCGGAAGTGACGT (double strand) [5hmC_proximal antisense-hydroxymethylated]”, for which, under “5hmC on antisense strand only, 5hmC on strand 2 at the CpG (opposite position 10 of strand 1), protein details: N-terminal His, letters put together from the description”, the binding result was “binds”.

As to “ACGTAAAGAGGAAGCGACGT (double strand) [5mC_distal_sense]”, for the setting “5mC does not interfere, 5mC at position 15 of strand 1, protein details: N-terminal His”, the binding result is on record as “binds”. For the sequence “ACGTAAAGAGGAAGCGACGT (double strand) [5hmC_distal_sense]”, the binding result (5hmC does not interfere, 5hmC at position 15 of strand 1, protein details: N-terminal His) was “binds”.

These data come from article PMC6972792.
